# Among all 400,000 compounds or so, about 5,500 (1.4%) were called active. The inconclusive results got no clear call from the source; some entries with a clear call stand among them for comparison. Calls follow the shape of the dose curve; as a rule, active = well fitted cell-killing curve with a large enough effect; inconclusive = small, poorly fitted or top-dose-only effect, or effect the other way; inactive = flat fitted curve, though single readings scatter. Where the call is inconclusive, the potency comes from a doubtful curve fit. Some compounds were tested as several samples or in several runs, with calls that do not always agree.
# Assay: qHTS assay for MDR1-selective chemotherapeutics: Primary screen using the parental adenocarcinoma cell KB-3-1; also: nearly all actives have a fitted effect of over 60% in size
# Details: KB-3-1 viability, CellTiter-Glo ATP luminescence, 72 h; activity change, negative = cytotoxic: at 46.1 µM (top of the series)
# How it was run: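 Using CellTiter-Glo luminescence, growth of non-resistant KB-3-1 adenocarcinoma cells is assessed 72 h after pin-tool compound addition at 37 °C. Normalized responses across the concentration series yield fitted curves.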
# % is scaled to controls: 0 for no effect and ±100 for the full control effect; potency is read from the fitted curve at half-maximal effect.
Compound,Potency,"activity change, negative = cytotoxic"
COCCCNC(=O)C(=O)N/N=C/c1cc2c(cc1Br)OCO2,inactive,
O=C(c1cccc(Cl)c1)C1CCCN(S(=O)(=O)c2ccccc2)C1 (stereo unspecified),"inconclusive: 2.91 µM [cytotoxic, full curve, poor fit]",
CCNC(=S)N1CCN(c2ccccc2OCC)CC1,,inconclusive: 5.32%
O=C(NC1(C(F)(F)F)NC(=O)N(C2CCCCC2)C1=O)c1ccco1 (stereo unspecified),"inconclusive: 29.1 µM [cytotoxic, single point]",
CCCCOc1cccc2c(=O)n(CC(=O)Nc3ccc4c(c3)OCCO4)ccc12,"inconclusive: 29.1 µM [cytotoxic, single point]",
Cc1cc(C)c(C(=O)Nc2ccccc2)c(SCC(=O)Nc2ccc(Br)cc2C)n1,inactive,
CCCCC1CC1C(=O)Nc1ncc2c(n1)CC(C)(C)CC2=O (stereo unspecified),"inconclusive: 29.1 µM [cytotoxic, single point]",
COc1ccc(-n2c(=O)c3ccc(C(=O)NCc4ccc(C)cc4)cc3n(CC(=O)Nc3ccc(C)cc3)c2=O)cc1,inactive,
O=C(Nc1ccc2c(c1)OCO2)C(c1ccc(Cl)cc1)N1CCN(C(=O)c2ccco2)CC1 (stereo unspecified),"inconclusive: 29.1 µM [cytotoxic, single point]",
CC1Cc2cc(S(=O)(=O)N3CCC(C(=O)N(C)Cc4ccccc4)CC3)ccc2N1C(=O)C1CC1 (stereo unspecified),inactive,
O=c1[nH]c2cc([N+](=O)[O-])c([N+](=O)[O-])cc2[nH]c1=O,inactive,
CC(C)CC(C(=O)NC1CCCC1)N(Cc1ccc2c(c1)OCO2)C(=O)c1snc(C(N)=O)c1N (stereo unspecified),inactive,
O=S(=O)(c1ccc(Br)cc1)c1nnn2c1nc(NCc1cccs1)c1sccc12,inactive,
Cc1ccc(S(=O)(=O)Cn2nnnc2C(C(C)C)N2CCN(c3nc4ccccc4s3)CC2)cc1 (stereo unspecified),inactive,
CCOc1cc(/C=C2/C(=O)ON=C2C)ccc1OCc1ccccc1,inactive,
Cc1cccc(C2=NN(c3ccccc3)[C@H](CO)[C@H]2c2ccc(Cl)cc2)c1,"inconclusive: 29.1 µM [cytotoxic, single point]",
CN(NC(=O)c1ccccc1)c1ncc(C(F)(F)F)cc1Cl,inactive,
CCCCN(C(=O)CCCc1nc2ccccc2s1)c1c(N)n(CCCC)c(=O)[nH]c1=O,"inconclusive: 29.1 µM [rising, single point]",
COc1cc(CNCCSc2nnnn2C)ccc1OCc1c(F)cccc1Cl,active: 18.4 µM,
COC(=O)CC1COc2ccccc2N1S(=O)(=O)c1ccc(Br)cc1 (stereo unspecified),inactive,
CCOc1ccccc1/C=N/n1nnnc1N,"inconclusive: 25.9 µM [rising, single point]",
CNc1cc(C)nc(-n2nc(C)cc2C)n1,"inconclusive: 29.1 µM [cytotoxic, partial curve, poor fit]",
Cc1ccc2nc(N3CCC(C(=O)O)CC3)nc(-c3ccccc3)c2c1,inactive,

# 3 entries already listed, sorted by SMILES length, falling.
Compound,Potency,"activity change, negative = cytotoxic"
CC1Cc2cc(S(=O)(=O)N3CCC(C(=O)N(C)Cc4ccccc4)CC3)ccc2N1C(=O)C1CC1 (stereo unspecified),inactive,
O=C(c1cccc(Cl)c1)C1CCCN(S(=O)(=O)c2ccccc2)C1 (stereo unspecified),"inconclusive: 2.91 µM [cytotoxic, full curve, poor fit]",
CNc1cc(C)nc(-n2nc(C)cc2C)n1,"inconclusive: 29.1 µM [cytotoxic, partial curve, poor fit]",

# Going on with the list.

Compound,Potency,"activity change, negative = cytotoxic"
CCN(CC)CCNC(=O)Cn1cnc2sc(C)c(S(=O)(=O)N3CCN(c4ncccn4)CC3)c2c1=O,inactive,
Cc1cc(-c2ccccc2)nc(N/N=C/c2ccc(O)cc2O)n1,"inconclusive: 29.1 µM [cytotoxic, single point]",
O=C(c1ccccc1)c1ccc(C(=O)N2CCOCC2)cc1,inactive,
CC(C)c1ccc(CN2C(=O)NC3(CCCCCC3)C2=O)cc1,"inconclusive: 29.1 µM [cytotoxic, single point]",
COc1ccc(CN2C(=O)c3ccccc3C(/C=N/OCc3ccc(Cl)cc3)C2=O)cc1 (stereo unspecified),"inconclusive: 25.9 µM [cytotoxic, single point]",
O=C1CCCCC1CCc1ccncc1 (stereo unspecified),"inconclusive: 29.1 µM [rising, single point]",
Cc1ccc(S(=O)(=O)N2CCN(C(=O)CC(C)C)CC2)cc1,"inconclusive: 29.1 µM [cytotoxic, single point]",
CN(C)c1ccc(C=O)cc1[N+](=O)[O-],inactive,
COc1ccc(C(Cl)=C(c2ccc(OC)cc2)c2ccc(OC)cc2)cc1,"inconclusive: 3.26 µM [cytotoxic, full curve, poor fit]",
COc1ccccc1NC(=S)NNC(=O)c1nn(C)c(C)c1Cl,"inconclusive: 25.9 µM [rising, single point]",
COc1ccc(NC(=O)c2ccc(NC(=O)c3cccs3)cc2)cc1,inactive,
NC(=O)c1ccc(NC(=O)CN2CCN(Cc3ccccc3)CC2)cc1,inactive,
C[C@@H]1CCCCO[C@@H](CN(C)C(=O)CCCN(C)C)[C@@H](C)CN([C@H](C)CO)C(=O)c2cc(NC(=O)CCC(F)(F)F)ccc2O1,"inconclusive: 0.82 µM [rising, full curve, poor fit]",
COC(=O)c1ccc(COc2ccccc2/C=N/NC(=O)c2cccnc2)cc1,inactive,
CCOC(=O)c1cccc(NC(=O)CCc2nc(-c3ccc(C)cc3)no2)c1,"inconclusive: 23.1 µM [cytotoxic, single point]",
O=C(NCc1cccnc1)C1CC(c2ccc(Cl)c(Cl)c2)=NO1 (stereo unspecified),"inconclusive: 16.4 µM [cytotoxic, partial curve]",
CCOC(=O)c1c2c(n(-c3ccc(OC)cc3)c1C)C(=O)C(=O)c1ccccc1-2,"inconclusive: 3.26 µM [cytotoxic, partial curve, poor fit]",
CC(C)C[C@H](NC(=O)NCCc1ccc(Cl)cc1)C(=O)O,"inconclusive: 29.1 µM [rising, single point]",
CCOC(=O)c1c(N)sc2c1CCN(Cc1ccccc1)C2,active: 14.6 µM,
CCCn1c(=N)c(S(=O)(=O)c2ccccc2)cc2c(=O)n3cccc(C)c3nc21,"inconclusive: 3.26 µM [rising, partial curve, poor fit]",
CCc1[nH]nc2c1C(C1C=CCCC1)C(C#N)=C(N)O2 (stereo unspecified),"inconclusive: 25.9 µM [cytotoxic, single point]",
Cc1ccc2c(CN(C)Cc3ccc(OC(F)F)cc3)cc(=O)oc2c1C,"inconclusive: 29.1 µM [cytotoxic, single point]",
O=C(Cn1c(C(=O)N2CCN(C3CCCCC3)CC2)cc2sccc21)c1ccccc1,"inconclusive: 29.1 µM [cytotoxic, single point]",

# From PubChem BioAssay AID1347075 (National Center for Advancing Translational Sciences (NCATS), 2019)
